# PubChem BioAssay AID1259282 – Sanger Institute | 2017
# Screen: 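Kinases whose loss reduces viability on their own or with anchor drugs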 (primary screen)
# Cell system: DIFI human colorectal cancer cell line
# Reagent: siRNA pool against human genes
# Treatment: anchor drug at a mild dose (BYL719 1 µM, cetuximab 5 µg/ml, trametinib 10 nM) or DMSO vehicle; exposure time not given
# Measured: 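Robust z-score and replicate-mean viability versus non-targeting pool without drug, plus a synergy score for each low-dose anchor drug (BYL719, cetuximab, trametinib)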
# Direction: robust z-score, knock-down alone: higher = more viable cells than typical knock-down; viability, knock-down alone: higher = more viable cells
# Active means: 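Essential when the robust z-score of the knock-down without drug falls below -3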
# Meaning of the calls: active = essential (knock-down alone, z below -3); inactive = not essential
# This is an unselected part of 794 reagents tested. 11 of them (1.4%) count as active. 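Calls flag knock-downs that lower viability without drug; drug synergy appears only in the synergy scores; exposure time not stated.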 A number with no mark means an inactive call. Viability is capped at 1. Further read-outs or replicates are left out here. Not stated in the record: the amount of reagent, the time to read-out.
Target gene,"robust z-score, knock-down alone","viability, knock-down alone (fraction of control)"
CDKL1 (cyclin dependent kinase like 1),0.642,0.989
NME7 (NME/NM23 family member 7),0.715,1
MAP3K8 (mitogen-activated protein kinase kinase kinase 8),0.372,0.95
RPS6KA4 (ribosomal protein S6 kinase A4),0.46,0.963
CKS2 (CDC28 protein kinase regulatory subunit 2),0.715,1
PIK3R5 (phosphoinositide-3-kinase regulatory subunit 5),0.509,0.97
ULK4 (unc-51 like kinase 4),0.0618,0.905
MTOR (mechanistic target of rapamycin kinase),0.652,0.991
DYRK2 (dual specificity tyrosine phosphorylation regulated kinase 2),-2.58,0.521
HIPK1 (homeodomain interacting protein kinase 1),0.715,1
MAGI3,0.715,1
EEF2K (eukaryotic elongation factor 2 kinase),-0.586,0.811
PAK5 (p21 (RAC1) activated kinase 5),-1.23,0.718
MED24 (mediator complex subunit 24),0.715,1
PRKACG (protein kinase cAMP-activated catalytic subunit gamma),-0.11,0.88
EPHA8 (EPH receptor A8),-1.85,0.627
SGK3 (serum/glucocorticoid regulated kinase family member 3),-0.288,0.854
OBSCN,0.715,1
CSNK1E (casein kinase 1 epsilon),0.0635,0.905
ULK2 (unc-51 like autophagy activating kinase 2),-0.556,0.815

An excerpt from above, reduced to “viability, knock-down alone (fraction of control)”.
MED24 (mediator complex subunit 24) = 1
PRKACG (protein kinase cAMP-activated catalytic subunit gamma) = 0.88
EPHA8 (EPH receptor A8) = 0.627
